Laboratory results: PubChem BioAssay AID1224830 (NIAID, 2016)

Purpose: 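Regulators of TLR4 signalling towards TNF-alpha in macrophage-like cells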 (primary screen)
System: human THP-1 monocytic leukaemia cells, TNF dual-luciferase reporter clone, PMA-differentiated to macrophage-like cells
Knock-down reagent: siRNA pool against human genes, 50 nM
Time to read-out: LPS for 4 h, given about 3 days after siRNA transfection
Challenge: bacterial LPS (TLR4 ligand), 10 ng/ml
Measurement: 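Ratio of firefly to renilla light, scaled to the plate median and expressed as a robust z-score per replicate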
Reading the numbers: TNF reporter robust z-score: higher = stronger TNF reporter response to LPS
Rule for the call: 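a well is active when its z-score exceeds 2.8 or falls below -1.5; control wells carry no call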
Shown is one part, drawn at random, of about 18,000 reagents. In the full data, about 2,900 (16%) got an active call. 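Calls are made per well; low scores hint the gene aids the LPS response, high scores that it dampens it.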 Repeated entries: four replicate wells of each siRNA pool. Reagent sequences are not shown.

PID1 (GeneID 55022) → TNF reporter robust z-score: -0.14; call: inactive
PID1 (GeneID 55022) → TNF reporter robust z-score: 0.75; call: inactive
PID1 (GeneID 55022) → TNF reporter robust z-score: 0.5; call: inactive
MTCL2 (GeneID 140710) → TNF reporter robust z-score: 0.21; call: inactive
MTCL2 (GeneID 140710) → TNF reporter robust z-score: 0.33; call: inactive
MTCL2 (GeneID 140710) → TNF reporter robust z-score: 0.09; call: inactive
MTCL2 (GeneID 140710) → TNF reporter robust z-score: 0.26; call: inactive
STK17A (GeneID 9263) → TNF reporter robust z-score: 0.95; call: inactive
STK17A (GeneID 9263) → TNF reporter robust z-score: 0.26; call: inactive
STK17A (GeneID 9263) → TNF reporter robust z-score: 2.16; call: inactive
STK17A (GeneID 9263) → TNF reporter robust z-score: -1.05; call: inactive
GYPB (GeneID 2994) → TNF reporter robust z-score: 1.05; call: inactive
GYPB (GeneID 2994) → TNF reporter robust z-score: 0.8; call: inactive
GYPB (GeneID 2994) → TNF reporter robust z-score: 0.58; call: inactive
GYPB (GeneID 2994) → TNF reporter robust z-score: 0.48; call: inactive
PIGZ (GeneID 80235) → TNF reporter robust z-score: -0.63; call: inactive
PIGZ (GeneID 80235) → TNF reporter robust z-score: -0.92; call: inactive
PIGZ (GeneID 80235) → TNF reporter robust z-score: -0.87; call: inactive
PIGZ (GeneID 80235) → TNF reporter robust z-score: -1.19; call: inactive
GBA2 (GeneID 57704) → TNF reporter robust z-score: -0.43; call: inactive
GBA2 (GeneID 57704) → TNF reporter robust z-score: 0.71; call: inactive
GBA2 (GeneID 57704) → TNF reporter robust z-score: -0.33; call: inactive
GBA2 (GeneID 57704) → TNF reporter robust z-score: -0.39; call: inactive
RASGRP1 (GeneID 10125) → TNF reporter robust z-score: 2.61; call: inactive
RASGRP1 (GeneID 10125) → TNF reporter robust z-score: 4.98; call: active
RASGRP1 (GeneID 10125) → TNF reporter robust z-score: 1.73; call: inactive
RASGRP1 (GeneID 10125) → TNF reporter robust z-score: 1.3; call: inactive
DTNA (GeneID 1837) → TNF reporter robust z-score: -1.12; call: inactive
DTNA (GeneID 1837) → TNF reporter robust z-score: -1.09; call: inactive
DTNA (GeneID 1837) → TNF reporter robust z-score: -1.34; call: inactive
DTNA (GeneID 1837) → TNF reporter robust z-score: -0.94; call: inactive
CNTN5 (GeneID 53942) → TNF reporter robust z-score: -0.66; call: inactive
CNTN5 (GeneID 53942) → TNF reporter robust z-score: -1.29; call: inactive
CNTN5 (GeneID 53942) → TNF reporter robust z-score: -0.43; call: inactive
CNTN5 (GeneID 53942) → TNF reporter robust z-score: -0.39; call: inactive
AP5S1 (GeneID 55317) → TNF reporter robust z-score: -1; call: inactive
AP5S1 (GeneID 55317) → TNF reporter robust z-score: -0.66; call: inactive
AP5S1 (GeneID 55317) → TNF reporter robust z-score: -0.35; call: inactive
AP5S1 (GeneID 55317) → TNF reporter robust z-score: -0.24; call: inactive
ACP3 (GeneID 55) → TNF reporter robust z-score: -0.02; call: inactive
ACP3 (GeneID 55) → TNF reporter robust z-score: 0.75; call: inactive
ACP3 (GeneID 55) → TNF reporter robust z-score: -1.46; call: inactive
ACP3 (GeneID 55) → TNF reporter robust z-score: -1.02; call: inactive
LINC01600 (GeneID 154386) → TNF reporter robust z-score: 0.53; call: inactive
LINC01600 (GeneID 154386) → TNF reporter robust z-score: 0.27; call: inactive
LINC01600 (GeneID 154386) → TNF reporter robust z-score: -0.12; call: inactive
LINC01600 (GeneID 154386) → TNF reporter robust z-score: -0.02; call: inactive

Reagents above marked active, once more:
RASGRP1 (GeneID 10125) → TNF reporter robust z-score: 4.98; call: active
